Source: ChEMBL document CHEMBL3988442, “University of Dundee, Small-Polar-MMV Screening Library” (2021).

Amino acid sequences for entries named in this document (tags omitted).
UniProt E9BF75, entry or part of it: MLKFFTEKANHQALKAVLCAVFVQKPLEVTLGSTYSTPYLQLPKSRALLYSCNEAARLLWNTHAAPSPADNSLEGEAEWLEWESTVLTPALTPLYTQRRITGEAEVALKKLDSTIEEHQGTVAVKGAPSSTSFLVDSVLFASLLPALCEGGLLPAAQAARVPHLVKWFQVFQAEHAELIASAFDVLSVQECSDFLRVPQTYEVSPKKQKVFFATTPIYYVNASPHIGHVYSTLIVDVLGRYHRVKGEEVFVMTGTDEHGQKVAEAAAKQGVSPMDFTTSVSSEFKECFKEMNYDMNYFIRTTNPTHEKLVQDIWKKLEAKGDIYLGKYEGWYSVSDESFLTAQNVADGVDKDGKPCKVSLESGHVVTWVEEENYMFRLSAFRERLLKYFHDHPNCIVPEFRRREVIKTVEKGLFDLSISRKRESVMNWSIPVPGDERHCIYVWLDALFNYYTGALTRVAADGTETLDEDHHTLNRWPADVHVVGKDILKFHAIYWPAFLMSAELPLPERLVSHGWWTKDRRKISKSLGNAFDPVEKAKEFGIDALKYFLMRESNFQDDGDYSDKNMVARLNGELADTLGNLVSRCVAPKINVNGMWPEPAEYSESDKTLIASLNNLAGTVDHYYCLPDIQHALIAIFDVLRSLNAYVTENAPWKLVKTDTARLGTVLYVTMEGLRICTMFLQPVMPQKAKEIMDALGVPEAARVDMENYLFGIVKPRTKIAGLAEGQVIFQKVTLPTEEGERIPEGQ

Mtb heat-shock: 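Assay on Mycobacterium tuberculosis, filed only as a heat shock assay from Cornell; the read-out is not stated. The concentration is filed as 10 mM, unlikely as a test dose, so the dose is not known. The record gives no direction; compounds that gave an IC50 in retests scored well above the rest, so higher reads as stronger inhibition. About 69,000 compounds were tested under these conditions; 1.4% (about 930) showed 50% or more at least once.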
LdMetRS: 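Methionyl-tRNA synthetase (putative), Leishmania donovani (UniProt E9BF75). Primary screen of methionyl-tRNA synthetase; the read-out is not stated. The test concentration is not given. Values are per cent inhibition. Of about 68,000 compounds tested this way, about 24 (0.035%) reached 50% or more in at least one test.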
Mtb growth Cornell: 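Whole-cell assay for inhibitors of Mycobacterium tuberculosis growth, labelled Cornell in the record; the read-out is not stated. The concentration is filed as 10 mM, unlikely as a test dose, so the dose is not known. The record gives no direction; compounds strong in two other growth screens of this library score well above the rest, so higher reads as stronger inhibition. Size under these conditions: about 53,000 compounds, about 900 of them at 50% or above in at least one test.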

All values are in %.
The record does not define 0% and 100%; most values in the screen are far below 50% and negative numbers occur (in some assays of this library far below -100).
This is an unselected part of the compounds tested.
A dash means the value is not listed here; it may have been measured.

compound,Mtb heat-shock,LdMetRS,Mtb growth Cornell
CNC(=O)c1cccnc1NCc1ccc(Cn2cccn2)cc1,-96.91,20.85,-
COc1ccc(N2CCN(C(=O)NC(C)c3nncn3C)CC2)cc1 (centres undefined),-21.82,13.01,-91.9
CC(=O)NCc1ccc(C(=O)N2CCCC2c2cnn(C)c2)s1 (centres undefined),-3.477,21.02,-
CCn1c(C2CCN(C(=O)c3ccc4cc[nH]c4c3)CC2)n[nH]c1=O,-11.87,4.878,-
CCC(CC)NC(=O)CN1CCSCC1,-18.24,7.258,-10.24
O=C(Nc1cc(C(F)(F)F)ccc1Cl)c1ccc(N2CCOCC2)nn1,5.409,2.174,-30.95
CCOC(C)c1nc(CN2CCN(CC(F)F)CC2)cs1 (centres undefined),-22.26,14.38,14.83
C[C@H](C(=O)N1Cc2ccccc2CC2(CCCN2C)C1)c1ccccc1 (some centres undefined),-23.21,16,-
Cc1cc(CSc2nc(=O)ccn2C(C)C)no1,11.06,1.389,9.271
[H][C@@]12COC[C@@H](CC(=O)NCCOC)[C@]1([H])CN(Cc1cccnc1)C2,12.35,-,10.18
O=C(O)C1CCN(C(=O)Cn2ccc3c(Cl)cccc32)CC1,-0.4545,13.76,8.644
Cc1ccnc(N2Cc3cnn(Cc4ccc(F)cc4)c3C2)n1,-37.07,11.17,-19.44
COCc1nnc(C(=O)N(C)Cc2ccc(OC)cc2)o1,51.18,11.2,-
O=C(O)C(F)(F)F.O=C(O)C(F)(F)F.[H][C@@]12CN(Cc3ccsc3)CCC[C@]1(C(=O)OCC)CN(CCOC)C2,12,-,10.28
Cc1ccc(C)c(OCCNC(=O)[C@@H]2CCCCN2)c1,-7.968,12.05,16.77
COCc1nn(C(C)C)c2c1CCN(Cc1ccsc1)C2,-32.3,7.5,5.9
O=C(NCc1cc[nH]n1)NCC(c1ccccc1)N1CCOCC1 (centres undefined),-1.088,3.684,-
[H][C@]12CC[C@]([H])(CN(C(=O)C3CCC3)C1)N(Cc1cnn(CC)c1)C2,2.045,-,4.791
CN(C)Cc1nnc2n1CCCN(C(=O)c1c[nH]cn1)C2,-0.4645,14.18,-24.51
COC[C@@H]1CC[C@H]2[C@H](CCN2S(=O)(=O)c2ccc(OC)cc2)O1,-,7.296,-
CCCOC(=O)N1CCc2cccc(S(=O)(=O)N3CCOCC3)c2C1,-31.35,16.25,2.682
O=C(NCCc1ccccc1F)NCC(O)c1cccc(F)c1 (centres undefined),-19.27,19.94,8.191
N#CCCN(CC1CCOC1)Cn1ccc(-c2cccs2)n1 (centres undefined),-22.16,0.2545,-20.63
COc1cccc(CNCc2c(C)nn(C)c2N(C)C)c1,11.86,17.89,-
Cc1nc(=O)c2ccccc2n1C1=CCN(CC(=O)N2CCCC2)CC1,-0.2897,19.81,47.27
COc1ccc(CN(Cc2cncn2C)CC2CCCO2)cc1OC (centres undefined),-,14.73,-
O=C(CCc1ccccc1)N1CCN(C(=O)c2ccc[nH]2)CC1,5.768,3.855,5.598
Cc1ccc(-c2ccnc(NC(C)c3c(C)n[nH]c3C)n2)c(C)n1 (centres undefined),15.64,9.61,-11.97
CCn1ncc(Br)c1CN(C)S(=O)(=O)c1ccc(C)cc1,-7.055,11.54,-
CC(NC(=O)CSCC#N)c1ccc(F)cc1 (centres undefined),-11.32,7.429,-13.07
CC(NCc1cccc(COC2CCCC2)c1)c1cnn(C)c1 (centres undefined),-13.65,3.175,7.074
CCn1c(C)nnc1Sc1nn2cc(C)nc2s1,-3.072,20,-23.69
COC(=O)c1ccc(Cn2nc(C)cc2C)c(OC)c1,-10.59,19.1,5.286
O=C(Cc1ccc2c(c1)OCCO2)NCc1ccc(-n2cncn2)nc1,-9.521,14.42,-
c1ccc(CCN2CCN(c3ccc4nncn4n3)CC2)nc1,-40.89,10.12,-5.452
CCCc1cc(=O)[nH]c2nnc(SCC(=O)OC)n12,-6.63,7.343,-3.702
Cc1cc(C)n(CCC(=O)N2CCCC(c3nc(C(C)C)no3)C2)n1 (centres undefined),7.174,-7.789,-
Cc1cc(N2CCC(Cc3ccncc3)C2)ncn1 (centres undefined),6.61,16.27,-20.77
Cc1cccc(CN2C(=O)CCC23CCN(C(=O)N2CCCC2)CC3)n1,-,7.372,-
CC(=O)c1cccc(NC(=O)Cn2cnc(-c3ccccc3)cc2=O)c1,18.14,10.07,-32.89
OC(CN1CCC(c2ccn[nH]2)CC1)c1ccc(F)cc1 (centres undefined),-16.57,12.22,-23.48
CCOC(=O)C1CCCN(Cc2cc(C#N)n(C)c2C)C1 (centres undefined),-10.88,3.359,-5.631
CC(C)Cc1cc(CNc2nc(-c3cccnc3)nc3c2CNC3)no1,15.4,8.156,-3.835
CCC1=NN2C(=N)/C(=C\c3cccn3-c3ccc(Cl)cc3)C(=O)N=C2S1,-18.39,7.726,-
O=C(NCc1cccnc1-n1cncn1)c1cc(Cl)ccn1,5.104,5.079,-17.17
CN(Cc1n[nH]c2c1CCCC2)c1nc(C2CC2)nc2c1CCNCC2,1.399,5.115,2.548
Cc1nn(C)c2cn(CC(=O)N3CCN(c4ccccn4)CC3)nc12,12.8,7.649,-14.87
O=C(Nc1ccccc1)N1C(CN2CCOCC2)[C@]2(O)CC[C@H]1CC2 (some centres undefined),-,10.14,-
CCNc1ncc(C(=O)N[C@@H](C)[C@H](O)c2ccccc2)cn1,8.309,14.54,8.789
N#Cc1ccc(CN2CCCCC2Cn2cccn2)cc1 (centres undefined),-20.32,9.497,-
O=S1(=O)c2ccccc2C2(CCN(Cc3ccccc3)C2)N1CC1CC1 (centres undefined),-,5.923,-
c1csc(-c2nc(CN3CCOC(Cn4cncn4)C3)cs2)c1 (centres undefined),-16.05,14.17,25.4
COc1cc(CN2CCCC(Nc3cccc(F)c3)C2)cc(Cl)c1O (centres undefined),-4.553,2.135,-
[H][C@@]12CN(C(=O)Cc3ccccn3)C[C@]1([H])[C@@H]2CC(=O)Nc1cccnc1,-8.168,-,-39.52
CN(C)S(=O)(=O)N1CC[C@]2(C[C@@H](OCc3ccccn3)CO2)C1.O=C(O)C(F)(F)F,3.686,-,13.35
Cc1ccc(NS(=O)(=O)c2cnn(Cc3ccccc3)c2)c(C(=O)O)c1,16.94,6.775,-25.98
O=C(Cc1ccccc1F)N1CCN(C(=O)c2ccoc2)CC1,-4.448,13.38,2.202
CN(C)c1ccc(C(=O)NCC2(O)CCOCC2)cc1,6.513,14.86,-
Cc1ccc(C(=O)N2CCc3ncnc(C)c3CC2)cc1F,-12.81,0.7519,-34.93
CCNC(=O)C1CCCN(c2cccc(C(F)(F)F)n2)C1 (centres undefined),16.61,12.15,5.249
Cc1cc(CN2CCC(CNS(=O)(=O)c3ccc(Br)s3)CC2)c(C)o1,-19.34,2.158,26.04
COCCc1noc(CN2CCN(CC(O)c3ccccc3)CC2)n1 (centres undefined),-12.07,15.28,-
CCc1ccc(C2CC(=O)Nc3c2c(=O)n(C)c2ncnn32)cc1 (centres undefined),12.74,12.57,-
Cc1nc(-c2cc(Cl)c3c(c2)CC(CN)O3)c[nH]1 (centres undefined),42.51,40.72,43.08
Cc1cnn(CC(C)NCc2ccc(OCc3ccncc3)cc2)c1 (centres undefined),-17.37,9.722,-
Cn1cncc1CN1CCCC1c1cncc(Oc2ccc(F)cc2)n1 (centres undefined),0.7101,13.55,11.48
Cc1cc(C2CCCN2Cc2cc(=O)n(C)c(=O)n2C)on1 (centres undefined),-15.93,18.18,-
CC(C)(C)C(=O)NCCn1ccc(-c2ccncc2)n1,-1.786,8.374,-1.179
CC(C)COC[C@H]1CC[C@H]2[C@H](CCN2C(=O)c2ccncc2F)O1,-,17.26,-
Cc1cnc(C(=O)N2CCc3ncnc(-c4cnn(C)c4)c3CC2)cn1,-18.03,13.71,-
CCN1CC2(CCN(C(=O)C3CSC(C)(C)C(=O)N3)CC2)CC1=O (centres undefined),12.24,2.005,6.909

The last 5 entries again:

- Cc1cc(C2CCCN2Cc2cc(=O)n(C)c(=O)n2C)on1 (centres undefined) : Mtb heat-shock: -15.93%; LdMetRS: 18.18%
- CC(C)(C)C(=O)NCCn1ccc(-c2ccncc2)n1 : Mtb heat-shock: -1.786%; LdMetRS: 8.374%; Mtb growth Cornell: -1.179%
- CC(C)COC[C@H]1CC[C@H]2[C@H](CCN2C(=O)c2ccncc2F)O1 : LdMetRS: 17.26%
- Cc1cnc(C(=O)N2CCc3ncnc(-c4cnn(C)c4)c3CC2)cn1 : Mtb heat-shock: -18.03%; LdMetRS: 13.71%
- CCN1CC2(CCN(C(=O)C3CSC(C)(C)C(=O)N3)CC2)CC1=O (centres undefined) : Mtb heat-shock: 12.24%; LdMetRS: 2.005%; Mtb growth Cornell: 6.909%